Negatives hold for the conditions tested. At least one verdict rests on a figure or table, not on a statement of the authors. For part of these data: Construct, isoform or probe ends are uncertain for at least one entry.
How the values were obtained:
Assay in all cases: electrochemical aptasensor
[1] = target: HSA (human serum albumin) (UniProt P02768); details: 100x the VEGF165 concentration (100 pg/mL and 10 ng/mL), negligible effect on signal; 5'-NH2, coupled by amide bond to PANI/CNT carboxyl groups (DMT-MM); PBS rinsing, ferri/ferrocyanide redox probe; aptamer immobilized on PANI/CNT screen-printed carbon electrode; commercial protein
Lip = details: 100x the VEGF165 concentration, negligible effect on signal; 5'-NH2, coupled by amide bond to PANI/CNT carboxyl groups (DMT-MM); PBS rinsing, ferri/ferrocyanide redox probe; aptamer immobilized on PANI/CNT screen-printed carbon electrode; commercial protein
Lys = details: 100x the VEGF165 concentration, negligible effect on signal; 5'-NH2, coupled by amide bond to PANI/CNT carboxyl groups (DMT-MM); PBS rinsing, ferri/ferrocyanide redox probe; aptamer immobilized on PANI/CNT screen-printed carbon electrode; commercial protein

Measured: binding result

AUGCAGUUUGAGAAGUCGCGCAU [anti-VEGF165 RNA aptamer]
no binding: all assays above

— publication PMC8069203
